{"source": "PubChem BioAssay AID1508600", "about": "(Functional Genomics Laboratory (NCATS/FGL), 2020)", "note": "In all, about 53,000 sequences went through this assay and about 3,700 (7%) were called active.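 The calls were made as follows: active = gene knockdowns whose robust z-score for IL-1 alpha signal is at least 2 or at most -2, so actives lie on both sides; inactive = the rest.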 This is one part of the list.", "data": [{"assay": "Components of the Cytosolic LPS Sensing Pathway: Gene Identification via Genome-wide siRNA Screen;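 also: robust z of the log signal after scaling to non-targeting control siRNA wells of the plate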", "settings": "RAW264.7 macrophages, IL-1a HTRF, actives lie on both sides, screened at 100 nM (by protocol), cells primed 5 h with Pam3CSK4 first", "method_in_brief": "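Cells (RAW264.7, 1×10^4 per well) were transfected with siRNA at 100 nM and cultured 48h at 37 degrees C. Pam3CSK4 was added for 5 hours; LipidA transfection followed for 24 hour. IL-1a was then measured by HTRF.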", "values": [{"sequence": "GGAGCAACUAAUGAAGAAATT against Dnajc22", "z-score": "inactive: -0.064"}, {"sequence": "GGUACUGGAGAAAGUCAAGTT against Pi4kb", "z-score": "inactive: 0.46"}, {"sequence": "CCAUUUAAGGUCAUCUGCATT against Nxph2", "z-score": "inactive: -0.419"}, {"sequence": "CCCACGAGAAGUUUGAAAGTT against Ccdc171", "z-score": "inactive: -0.0115"}, {"sequence": "GCACAGAGGAUGUACGUUATT against Cstad", "z-score": "inactive: -0.665"}, {"sequence": "GGAGACGAGAGGAUCCUCUTT against Chga", "z-score": "inactive: -1.56"}, {"sequence": "GGCUCUUUGUUAAAUACCCTT against Fitm2", "z-score": "inactive: 1.38"}, {"sequence": "GGUACCCACUAGAGGAUCATT against Madd", "z-score": "active: -2.61"}, {"sequence": "GGACACAGGCCUAUAUUUUTT against Fam187a", "z-score": "inactive: 0.647"}, {"sequence": "GGCUGGUGAAAGUCAAGGUTT against Arid4a", "z-score": "inactive: 0.503"}, {"sequence": "GCGGGUUAACUUGUUUGGUTT against Zcwpw1", "z-score": "inactive: 0.525"}, {"sequence": "GGAAAAGAGAAGAAGGCACTT against Taf6", "z-score": "inactive: 0.654"}, {"sequence": "GGACGUAGAUCAUUUCAAUTT against Afm", "z-score": "inactive: -0.738"}, {"sequence": "GCUAGUUGGGAUACUCAAGTT against Mpp6", "z-score": "inactive: -1.28"}, {"sequence": "CCUGAAGUGGAGAUUCAACTT against Kcnj6", "z-score": "inactive: -1.27"}, {"sequence": "GCCACUUUAGUAUGGAAUGTT against Nxt1", "z-score": "inactive: 0.822"}, {"sequence": "GGUUGUAACUUGUAAGGCATT against Rnf144b", "z-score": "inactive: 0.123"}, {"sequence": "GGUACCUAUUGAGAUCAAGTT against Acot8", "z-score": "inactive: 0.807"}, {"sequence": "GCCCGUAGAUAUGAUCUUCTT against Vmn1r87", "z-score": "inactive: -0.207"}, {"sequence": "GCGAUUCGUCUUCGAGUUCTT against Fam161a", "z-score": "inactive: 0.483"}, {"sequence": "CCCGACACCAGUGGUAAAATT against Lgsn", "z-score": "inactive: -0.865"}, {"sequence": "CCAGGAUCCAAAGAGUAUUTT against Olfr521", "z-score": "inactive: -1.49"}, {"sequence": "ACAGGAGUCCAUAGCCGUCTT against Aspscr1", "z-score": "inactive: -1.47"}, {"sequence": "GGAAGAGAAUAAAACCUCATT against Ptpra", "z-score": "inactive: -0.781"}, {"sequence": "GCUGAUGGUGUAUAACUCGTT against Gorasp1", "z-score": "inactive: -0.124"}, {"sequence": "GCGAAGUUAAAUCUCAUCATT against Tesmin", "z-score": "inactive: 0.494"}, {"sequence": "GGACUUCUUCUAUUUCAUATT against Fam20a", "z-score": "inactive: -0.986"}, {"sequence": "GGCUGAAAUCUCAAUGGCUTT against Frem1", "z-score": "inactive: -0.426"}, {"sequence": "CGACUUGAUUUCAAAACAUTT against Fbxl13", "z-score": "inactive: -0.981"}, {"sequence": "GGCCGAGGUUUUGUUCUUUTT against Polr2g", "z-score": "inactive: -1.99"}, {"sequence": "GGAAGUGUUCAAACCAGAGTT against Smg5", "z-score": "inactive: 0.93"}, {"sequence": "GGAUCCUAGGAUAGAAAAUTT against Asgr2", "z-score": "inactive: -0.831"}, {"sequence": "GGGAGACAAGUUCAUCAAATT against Gtf2e1", "z-score": "inactive: 0.308"}, {"sequence": "GGAAUGUUUCUUUAUCACATT against Slc35e4", "z-score": "inactive: -0.837"}, {"sequence": "CCUAUAGCAGUGGUUUUCATT against Ece2", "z-score": "active: 2.22"}, {"sequence": "AAGCUGAGAACAGUCGAAGTT against Vasp", "z-score": "inactive: -0.319"}, {"sequence": "GGAAGAGACAAAGAGUACATT against 4933402J07Rik", "z-score": "inactive: -0.373"}, {"sequence": "GGUACAUUGGCAUUGUGAATT against Hnrnpf", "z-score": "inactive: 0.525"}, {"sequence": "GGAACGUACAGGAUAAUCUTT against Krt79", "z-score": "active: 4.28"}, {"sequence": "CCUAUGAAACCCAUCAUUATT against Farp2", "z-score": "inactive: 1.06"}, {"sequence": "CGUGGUACACUGAAGACUUTT against Mmp1a", "z-score": "active: 2.3"}, {"sequence": "CCAUGCUGAUUGCUCCGACTT against Cass4", "z-score": "inactive: 1.46"}, {"sequence": "GCAUAUUCAGCAACAGGUATT against Trim24", "z-score": "inactive: 0.0934"}, {"sequence": "CGGUACGAGAUGCAAAAAATT against Prkca", "z-score": "inactive: -0.749"}, {"sequence": "GGAAUACGUAUACUUCAGCTT against Dipk1c", "z-score": "inactive: 0.495"}, {"sequence": "GCAGCAUAAUUGCUUGCUATT against Pde8b", "z-score": "inactive: 0.504"}, {"sequence": "GGAUAAGAUAGUGAAAGAATT against Uba2", "z-score": "inactive: 0.00206"}, {"sequence": "GCUACCACGAAUUUAUAGATT against Nlrp9a", "z-score": "inactive: -0.896"}, {"sequence": "GGCAAUAAUAAAUAGCACCTT against Homer1", "z-score": "inactive: 0.8"}, {"sequence": "GUUCCACCAGAUUUUCUAATT against Vmn1r28", "z-score": "active: 2.6"}, {"sequence": "GCUGCUCAGUUUCUUCCAATT against H4c9", "z-score": "active: 2.08"}, {"sequence": "GCCAAUCUCAAGAUGAAGCTT against Col26a1", "z-score": "inactive: 0.229"}, {"sequence": "GGAAAAACGAUACUUGAUUTT against Gria3", "z-score": "inactive: -0.751"}, {"sequence": "GCACACCUACCACAACAUGTT against S100a11", "z-score": "inactive: 1.28"}, {"sequence": "CGAAGUGUUGGGAAGAUUATT against Tmprss11f", "z-score": "inactive: -0.412"}, {"sequence": "CCUACCGUUACCUAAGUGATT against Kcnj5", "z-score": "inactive: -1.15"}, {"sequence": "GGGAGAUUGAGAACUUUGCTT against Gpx7", "z-score": "inactive: -0.269"}, {"sequence": "GGUUGCAUGGCACAAGUCUTT against Olfr1213", "z-score": "inactive: -0.34"}, {"sequence": "GGAGAUCAAGAAUCUCUCUTT against Rnf112", "z-score": "inactive: 1.44"}, {"sequence": "GGCGACCCUGACUUCUAUATT against Spon1", "z-score": "inactive: -0.553"}, {"sequence": "GCAAUGAGUACUAUCAUACTT against Gnal", "z-score": "active: -2.71"}, {"sequence": "GGAUAUGACCCUAGAUUUATT against Gpm6b", "z-score": "inactive: 0.897"}, {"sequence": "GGAAGAACUCAAGAGGGAATT against Plpp2", "z-score": "inactive: -0.775"}, {"sequence": "GCUCUGCUAACUUACAUCUTT against Mtmr11", "z-score": "inactive: 1.75"}, {"sequence": "GGGUUACGCCUUCAUUAAUTT against Sf3b4", "z-score": "inactive: -1.7"}, {"sequence": "GGAGGUAAAGAUCAUGUCATT against Ddr1", "z-score": "inactive: -1.39"}, {"sequence": "CCAGGUGGAGUCCAUCUUCTT against Acacb", "z-score": "inactive: 0.0569"}, {"sequence": "GGAAAACACUUUAAACCAGTT against Afg3l1", "z-score": "inactive: -0.671"}, {"sequence": "GGAGGAACCCAAGUAGCCUTT against Serf2", "z-score": "inactive: -1.68"}, {"sequence": "GGCUAUUGUAUGAAAUUGUTT against Zfp599", "z-score": "inactive: 0.303"}, {"sequence": "GGAAGAACCCUGCUACAUCTT against Mrpl37", "z-score": "inactive: 0.764"}, {"sequence": "GGUGCAGAAGCUCAAGUUCTT against Cpne2", "z-score": "active: 2.44"}, {"sequence": "GGACAUGUCGGAUGGCUUCTT against P4ha1", "z-score": "inactive: 0.212"}, {"sequence": "CGGAAUGAUUCUGACUAAUTT against Mmp7", "z-score": "inactive: 0.546"}, {"sequence": "GGCAGAAAAGAAGAAGAAUTT against Ktn1", "z-score": "inactive: 0.402"}, {"sequence": "GCAUUUAAGUGUUGCAUUGTT against C1qtnf3", "z-score": "inactive: 1.09"}, {"sequence": "CCACUGUGAGACACAUAAGTT against Muc4", "z-score": "active: -3.25"}, {"sequence": "CCUUGGACUGAUAUUAGCUTT against Dtx3", "z-score": "inactive: 0.0235"}, {"sequence": "GGAUAUAGAAGAUGAAGAATT against 2810408A11Rik", "z-score": "inactive: 0.784"}, {"sequence": "GGUAUGUCCGACAUUUAACTT against Irx5", "z-score": "inactive: 1.89"}, {"sequence": "GCAGGUACUGCGCUAUUAUTT against Atp13a2", "z-score": "inactive: -0.766"}, {"sequence": "GGAGAGGAGUGUGUCAUCUTT against Neurl3", "z-score": "inactive: 0.0796"}, {"sequence": "GCCGCUACCUAUGAUGUCCTT against Kcne4", "z-score": "inactive: 0.385"}, {"sequence": "GCAGGAGAACUUUUUUAGUTT against Hus1", "z-score": "inactive: -1.01"}, {"sequence": "GGCGGACAGUUCUUUGCAATT against Slc2a13", "z-score": "inactive: -0.144"}, {"sequence": "CGGACAAAUGCUGUGCGUUTT against Kcnd1", "z-score": "inactive: 0.163"}, {"sequence": "CGCACAUGAAGCCACAUAUTT against Plekhb1", "z-score": "inactive: -0.176"}, {"sequence": "GGUUAUAGACAAGAUCGAUTT against Comp", "z-score": "inactive: 0.536"}, {"sequence": "CCCGCAACAAUAAACCUGATT against Yif1b", "z-score": "inactive: -1.36"}, {"sequence": "GGCUGCUGGGAAAAUGUGGTT against Hmgb4", "z-score": "inactive: -1.84"}, {"sequence": "GGCAGUUACAAAGUCUGUUTT against Timm8b", "z-score": "inactive: -0.334"}, {"sequence": "GGACGAUUACAUCCUUUUUTT against Gpn3", "z-score": "inactive: -0.93"}, {"sequence": "GGAUCCAAGGGCAAAAGAUTT against St6galnac1", "z-score": "inactive: -1.36"}, {"sequence": "GGCUAUAGUUCUCUGUUUUTT against Mon2", "z-score": "inactive: -0.0947"}, {"sequence": "GGACCAGUUAGAGCAAAUGTT against 2300002M23Rik", "z-score": "inactive: -0.742"}, {"sequence": "CCGUGGACCUAGGACUCAUTT against Olfr622", "z-score": "inactive: 0.618"}, {"sequence": "CCAUUUCCUACGCAAAAUGTT against Olfr1423", "z-score": "inactive: -0.838"}, {"sequence": "GGAUGGACCUUCAGAAAAGTT against Srrm4", "z-score": "inactive: -1.63"}, {"sequence": "GGCAAAAGUGGUUAUUGAATT against Itga6", "z-score": "inactive: 0.039"}, {"sequence": "GGUGUAUGGUCUCAACUUUTT against Enah", "z-score": "inactive: 1.84"}, {"sequence": "GGCAGAAGCAGAUAUUAGATT against Rbmxl1", "z-score": "active: 2.23"}, {"sequence": "CCUCCGGUCUUAUCAUGCATT against Sec61a1", "z-score": "inactive: 0.0213"}, {"sequence": "GGAUAAGAGCAUCUCUUCATT against Sdhd", "z-score": "inactive: -0.993"}, {"sequence": "CCUCAAAUUAGUGCAGUUATT against Dnah8", "z-score": "inactive: 0.661"}, {"sequence": "GCCAUGUGAUCGAAUCCAGTT against Clip2", "z-score": "inactive: -0.0773"}, {"sequence": "UCAGCGAGCUUUAACCUUUTT against Olfr1028", "z-score": "inactive: 0.26"}, {"sequence": "CGGUACUUCAUUGUAAUUUTT against Slc20a2", "z-score": "inactive: 1.2"}]}]}
